Results are given in words; binding and its absence hold for the method and conditions named. Binding seen in cells or lysates may run through a third protein. A yes stands for co-enrichment or nearness to the bait. Other partners may have been found. Where a sequence is shown, tags or fusion partners need not be part of it.
T1: SHMT2-BirA*-Flag (mouse) (UniProt Q9CZN7)
T1 sequence: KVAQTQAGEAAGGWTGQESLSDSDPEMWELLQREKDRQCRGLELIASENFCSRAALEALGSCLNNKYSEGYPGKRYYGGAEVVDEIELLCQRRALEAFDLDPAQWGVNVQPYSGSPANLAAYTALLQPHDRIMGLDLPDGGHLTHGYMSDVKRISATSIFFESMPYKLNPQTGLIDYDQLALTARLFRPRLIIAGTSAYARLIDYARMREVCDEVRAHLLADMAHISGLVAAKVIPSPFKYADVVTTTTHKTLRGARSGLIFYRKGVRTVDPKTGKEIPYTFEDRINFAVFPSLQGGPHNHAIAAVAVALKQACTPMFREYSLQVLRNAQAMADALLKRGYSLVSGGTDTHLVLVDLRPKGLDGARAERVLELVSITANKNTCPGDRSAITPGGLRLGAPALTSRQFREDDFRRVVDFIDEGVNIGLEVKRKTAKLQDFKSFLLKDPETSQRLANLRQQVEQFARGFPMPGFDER

B1: Malate dehydrogenase, mitochondrial (protein, UniProt P40926 25-338)
chain: AKVAVLGASGGIGQPLSLLLKNSPLVSRLTLYDIAHTPGVAADLSHIETKAAVKGYLGPEQLPDCLKGCDVVVIPAGVPRKPGMTRDDLFNTNATIVATLTAACAQHCPEAMICVIANPVNSTIPITAEVFKKHGVYNPNKIFGVTTLDIVRANTFVAELKGLDPARVNVPVIGGHAGKTIIPLISQCTPKVDFPQDQLTALTGRIQEAGTEVVKAKAGAGSATLSMAYAGARFVFSLVDAMNGKEGVVECSFVKSQETECTYFSTPLLLGKKGIEKNLGIGKVSSFEEKMISDAIPELKASIKKGEDFVKTLK
B2: Inorganic pyrophosphatase 2, mitochondrial (protein, UniProt Q9H2U2 33-334)
chain: ALYHTEERGQPCSQNYRLFFKNVTGHYISPFHDIPLKVNSKEENGIPMKKARNDEYENLFNMIVEIPRWTNAKMEIATKEPMNPIKQYVKDGKLRYVANIFPYKGYIWNYGTLPQTWEDPHEKDKSTNCFGDNDPIDVCEIGSKILSCGEVIHVKILGILALIDEGETDWKLIAINANDPEASKFHDIDDVKKFKPGYLEATLNWFRLYKVPDGKPENQFAFNGEFKNKAFALEVIKSTHQCWKALLMKKCNGGAINCTNVQISDSPFRCTQEEARSLVESVSSSPNKESNEEEQVWHFLGK
B3: 3-hydroxyisobutyryl-CoA hydrolase, mitochondrial (protein, UniProt Q6NVY1 33-386)
chain: DAAEEVLLEKKGCTGVITLNRPKFLNALTLNMIRQIYPQLKKWEQDPETFLIIIKGAGGKAFCAGGDIRVISEAEKAKQKIAPVFFREEYMLNNAVGSCQKPYVALIHGITMGGGVGLSVHGQFRVATEKCLFAMPETAIGLFPDVGGGYFLPRLQGKLGYFLALTGFRLKGRDVYRAGIATHFVDSEKLAMLEEDLLALKSPSKENIASVLENYHTESKIDRDKSFILEEHMDKINSCFSANTVEEIIENLQQDGSSFALEQLKVINKMSPTSLKITLRQLMEGSSKTLQEVLTMEYRLSQACMRGHDFHEGVRAVLIDKDQSPKWKPADLKEVTEEDLNNHFKSLGSSDLKF
B4: NAD(P) transhydrogenase, mitochondrial (protein, UniProt Q13423 44-1086)
chain: CKAPVKPGIPYKQLTVGVPKEIFQNEKRVALSPAGVQNLVKQGFNVVVESGAGEASKFSDDHYRVAGAQIQGAKEVLASDLVVKVRAPMVNPTLGVHEADLLKTSGTLISFIYPAQNPELLNKLSQRKTTVLAMDQVPRVTIAQGYDALSSMANIAGYKAVVLAANHFGRFFTGQITAAGKVPPAKILIVGGGVAGLASAGAAKSMGAIVRGFDTRAAALEQFKSLGAEPLEVDLKESGEGQGGYAKEMSKEFIEAEMKLFAQQCKEVDILISTALIPGKKAPVLFNKEMIESMKEGSVVVDLAAEAGGNFETTKPGELYIHKGITHIGYTDLPSRMATQASTLYSNNITKLLKAISPDKDNFYFDVKDDFDFGTMGHVIRGTVVMKDGKVIFPAPTPKNIPQGAPVKQKTVAELEAEKAATITPFRKTMSTASAYTAGLTGILGLGIAAPNLAFSQMVTTFGLAGIVGYHTVWGVTPALHSPLMSVTNAISGLTAVGGLALMGGHLYPSTTSQGLAALAAFISSVNIAGGFLVTQRMLDMFKRPTDPPEYNYLYLLPAGTFVGGYLAALYSGYNIEQIMYLGSGLCCVGALAGLSTQGTARLGNALGMIGVAGGLAATLGVLKPGPELLAQMSGAMALGGTIGLTIAKRIQISDLPQLVAAFHSLVGLAAVLTCIAEYIIEYPHFATDAAANLTKIVAYLGTYIGGVTFSGSLIAYGKLQGLLKSAPLLLPGRHLLNAGLLAASVGGIIPFMVDPSFTTGITCLGSVSALSAVMGVTLTAAIGGADMPVVITVLNSYSGWALCAEGFLLNNNLLTIVGALIGSSGAILSYIMCVAMNRSLANVILGGYGTTSTAGGKPMEISGTHTEINLDNAIDMIREANSIIITPGYGLCAAKAQYPIADLVKMLTEQGKKVRFGIHPVAGRMPGQLNVLLAEAGVPYDIVLEMDEINHDFPDTDLVLVIGANDTVNSAAQEDPNSIIAGMPVLEVWKSKQVIVMKRSLGVGYAAVDNPIFYKPNTAMLLGDAKKTCDALQAKVRESYQK
B5: Electron transfer flavoprotein subunit beta (protein, UniProt P38117 1-255)
chain: MAELRVLVAVKRVIDYAVKIRVKPDRTGVVTDGVKHSMNPFCEIAVEEAVRLKEKKLVKEVIAVSCGPAQCQETIRTALAMGADRGIHVEVPPAEAERLGPLQVARVLAKLAEKEKVDLVLLGKQAIDDDCNQTGQMTAGFLDWPQGTFASQVTLEGDKLKVEREIDGGLETLRLKLPAVVTADLRLNEPRYATLPNIMKAKKKKIEVIKPGDLGVDLTSKLSVISVEDPPQRTAGVKVETTEDLVAKLKEIGRI
B6: Complex III assembly factor LYRM7 (protein, UniProt Q5U5X0 1-104)
chain: MGRAVKVLQLFKTLHRTRQQVFKNDARALEAARIKINEEFKNNKSETSSKKIEELMKIGSDVELLLRTSVIQGIHTDHNTLKLVPRKDLLVENVPYCDAPTQKQ
B7: Cob(I)yrinic acid a,c-diamide adenosyltransferase, mitochondrial (protein, UniProt Q96EY8 33-250)
chain: QSRGPQGVEDGDRPQPSSKTPRIPKIYTKTGDKGFSSTFTGERRPKDDQVFEAVGTTDELSSAIGFALELVTEKGHTFAEELQKIQCTLQDVGSALATPCSSAREAHLKYTTFKAGPILELEQWIDKYTSQLPPLTAFILPSGGKISSALHFCRAVCRRAERRVVPLVQMGETDANVAKFLNRLSDYLFTLARYAAMKEGNQEKIYMKNDPSAESEGL
B8: Mitochondrial genome maintenance exonuclease 1 (protein, UniProt Q9BQP7 1-344)
chain: MKMKLFQTICRQLRSSKFSVESAALVAFSTSSYSCGRKKKVNPYEEVDQEKYSNLVQSVLSSRGVAQTPGSVEEDALLCGPVSKHKLPNQGEDRRVPQNWFPIFNPERSDKPNASDPSVPLKIPLQRNVIPSVTRVLQQTMTKQQVFLLERWKQRMILELGEDGFKEYTSNVFLQGKRFHEALESILSPQETLKERDENLLKSGYIESVQHILKDVSGVRALESAVQHETLNYIGLLDCVAEYQGKLCVIDWKTSEKPKPFIQSTFDNPLQVVAYMGAMNHDTNYSFQVQCGLIVVAYKDGSPAHPHFMDAELCSQYWTKWLLRLEEYTEKKKNQNIQKPEYSE
B9: Acyl-CoA dehydrogenase family member 9, mitochondrial (protein, UniProt Q9H845 38-621)
chain: AFAKELFLGKIKKKEVFPFPEVSQDELNEINQFLGPVEKFFTEEVDSRKIDQEGKIPDETLEKLKSLGLFGLQVPEEYGGLGFSNTMYSRLGEIISMDGSITVTLAAHQAIGLKGIILAGTEEQKAKYLPKLASGEHIAAFCLTEPASGSDAASIRSRATLSEDKKHYILNGSKVWITNGGLANIFTVFAKTEVVDSDGSVKDKITAFIVERDFGGVTNGKPEDKLGIRGSNTCEVHFENTKIPVENILGEVGDGFKVAMNILNSGRFSMGSVVAGLLKRLIEMTAEYACTRKQFNKRLSEFGLIQEKFALMAQKAYVMESMTYLTAGMLDQPGFPDCSIEAAMVKVFSSEAAWQCVSEALQILGGLGYTRDYPYERILRDTRILLIFEGTNEILRMYIALTGLQHAGRILTTRIHELKQAKVSTVMDTVGRRLRDSLGRTVDLGLTGNHGVVHPSLADSANKFEENTYCFGRTVETLLLRFGKTIMEEQLVLKRVANILINLYGMTAVLSRASRSIRIGLRNHDHEVLLANTFCVEAYLQNLFSLSQLDKYAPENLDEQIKKVSQQILEKRAYICAHPLDRTC
B10: Reticulon-4-interacting protein 1, mitochondrial (protein, UniProt Q8WWV3 41-396)
chain: TVMPAWVIDKYGKNEVLRFTQNMMMPIIHYPNEVIVKVHAASVNPIDVNMRSGYGATALNMKRDPLHVKIKGEEFPLTLGRDVSGVVMECGLDVKYFKPGDEVWAAVPPWKQGTLSEFVVVSGNEVSHKPKSLTHTQAASLPYVALTAWSAINKVGGLNDKNCTGKRVLILGASGGVGTFAIQVMKAWDAHVTAVCSQDASELVRKLGADDVIDYKSGSVEEQLKSLKPFDFILDNVGGSTETWAPDFLKKWSGATYVTLVTPFLLNMDRLGIADGMLQTGVTVGSKALKHFWKGVHYRWAFFMASGPCLDDIAELVDAGKIRPVIEQTFPFSKVPEAFLKVERGHARGKTVINVV

target: T1, SHMT2-BirA*-Flag (mouse); assay: proximity labelling; BioID in HeLa cells with Tet-induced SHMT2-BirA*-Flag; biotinylated proteins purified on immobilized streptavidin, trypsin digestion, MS; compared with BirA*-Flag alone and CHCHD2-BirA*-Flag (n = 3; >32-fold, p <0.05)

binding | Binder
binds | B1
binds | B2
binds | B3
binds | B4
binds | B5
binds | B6
binds | B7
binds | B8
binds | B9
binds | B10

From article PMC7480864
